What was measured:
[1] = CT performance phantom, Dual Energy CT (DECT) with GSI, contrast to noise ratio (CNR)
[2] = CT performance phantom, low kVp scans with iterative reconstruction, dose normalized contrast to noise ratio (CNRD)

SMILES: CC(=O)N(CC(O)CN(C(C)=O)c1c(I)c(C(=O)NCC(O)CO)c(I)c(C(=O)NCC(O)CO)c1I)c1c(I)c(C(=O)NCC(O)CO)c(I)c(C(=O)NCC(O)CO)c1I (stereo not shown) [Visipaque, iodixanol]
- improved maximum CNR ([1]; DECT scans compared to standard 120 kVp scan at same radiation dose (21.8 mGy)): ~36%
- allowed reduction of iodinated contrast agent concentration for equal CNR ([1]; GSI with and without noise suppression compared to standard 120 kVp scan, 21.8 and 12.9 mGy): about 25%
- CNRD increase ([2]; 80 kVp compared to 120 kVp, standard FBP, 1 to 10 mgI/ml): 24%
- allowed reduction of iodine concentration for equal CNRD ([2]; 80 kVp compared to standard 120 kVp scan): about 29%
- allowed reduction of iodine concentration ([2]; 80 kVp with ASIR): up to 53%
- allowed reduction of iodine concentration ([2]; 80 kVp with Veo): ≤ 61%
- CNRD increase (average) ([2]; ASIR (60%) compared to FBP, 120, 100 and 80 kVp): 47%
- allowed reduction of iodine concentration ([2]; Veo at the low dose level (2.7 mGy)): 68%
- CNRD increase ([2]; Veo compared to FBP, low radiation dose level (2.7 mGy)): 103%
- CNRD increase (average) ([2]; Veo compared to FBP, standard radiation dose level (10.8 mGy)): 60%
